The record followed here is PMC6642535.

Protein sequences, listed by entry. Tags and fused reporters are not part of them.
UniProt O60678: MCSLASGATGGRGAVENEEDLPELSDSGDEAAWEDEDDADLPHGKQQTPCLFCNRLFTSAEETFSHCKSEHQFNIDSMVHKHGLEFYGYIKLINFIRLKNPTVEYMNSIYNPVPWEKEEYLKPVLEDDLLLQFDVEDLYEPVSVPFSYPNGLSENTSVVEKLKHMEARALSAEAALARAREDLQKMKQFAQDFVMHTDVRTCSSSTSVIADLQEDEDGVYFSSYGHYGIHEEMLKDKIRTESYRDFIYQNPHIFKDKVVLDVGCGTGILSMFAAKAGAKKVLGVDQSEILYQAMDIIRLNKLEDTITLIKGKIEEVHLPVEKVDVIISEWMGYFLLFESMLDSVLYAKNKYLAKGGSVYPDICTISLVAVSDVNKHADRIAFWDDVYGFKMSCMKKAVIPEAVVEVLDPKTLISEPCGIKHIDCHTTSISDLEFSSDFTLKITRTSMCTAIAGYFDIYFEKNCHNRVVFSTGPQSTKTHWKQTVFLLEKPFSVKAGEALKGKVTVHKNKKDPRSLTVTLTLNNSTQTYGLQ
UniProt P04406: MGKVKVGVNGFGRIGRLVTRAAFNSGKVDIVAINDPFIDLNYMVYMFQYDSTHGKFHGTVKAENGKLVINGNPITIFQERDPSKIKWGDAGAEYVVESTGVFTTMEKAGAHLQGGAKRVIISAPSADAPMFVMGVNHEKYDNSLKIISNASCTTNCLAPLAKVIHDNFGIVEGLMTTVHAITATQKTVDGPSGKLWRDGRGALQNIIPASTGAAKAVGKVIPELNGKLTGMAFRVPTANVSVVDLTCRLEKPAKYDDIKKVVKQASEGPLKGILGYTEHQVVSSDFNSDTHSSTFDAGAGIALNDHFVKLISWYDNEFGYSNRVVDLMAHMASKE

In this assay the target is Green fluorescent protein (GFP)-tagged PRMT3 (protein arginine methyltransferase 3) (UniProt O60678). Kind of assay: affinity purification with mass spectrometry; GFP-PRMT3 immunoprecipitated with GFP antibody from GFP-PRMT3-overexpressing PANC-1 cells; in-solution trypsin digestion; mass spectrometry.

No constants are given. Whether binding was seen depends on the method and setting. Binding seen in cells or lysates may run through a third protein. Here binding means that the protein was enriched with, or labelled near, the bait; the list need not be complete.

In the case of “glucose-6-phosphate isomerase (G6PI) (from UniProt P06744 1-558) (enzyme)”, the binding result is given as “binds”. “glyceraldehyde-3-phosphate dehydrogenase (GAPDH), endogenous (from UniProt P04406 1-335) (enzyme)”: the binding entry is “binds”.
